The values below come from paper PMC8380814.

Amino acid sequences for entries named in this document (tags omitted).
UniProt O35286: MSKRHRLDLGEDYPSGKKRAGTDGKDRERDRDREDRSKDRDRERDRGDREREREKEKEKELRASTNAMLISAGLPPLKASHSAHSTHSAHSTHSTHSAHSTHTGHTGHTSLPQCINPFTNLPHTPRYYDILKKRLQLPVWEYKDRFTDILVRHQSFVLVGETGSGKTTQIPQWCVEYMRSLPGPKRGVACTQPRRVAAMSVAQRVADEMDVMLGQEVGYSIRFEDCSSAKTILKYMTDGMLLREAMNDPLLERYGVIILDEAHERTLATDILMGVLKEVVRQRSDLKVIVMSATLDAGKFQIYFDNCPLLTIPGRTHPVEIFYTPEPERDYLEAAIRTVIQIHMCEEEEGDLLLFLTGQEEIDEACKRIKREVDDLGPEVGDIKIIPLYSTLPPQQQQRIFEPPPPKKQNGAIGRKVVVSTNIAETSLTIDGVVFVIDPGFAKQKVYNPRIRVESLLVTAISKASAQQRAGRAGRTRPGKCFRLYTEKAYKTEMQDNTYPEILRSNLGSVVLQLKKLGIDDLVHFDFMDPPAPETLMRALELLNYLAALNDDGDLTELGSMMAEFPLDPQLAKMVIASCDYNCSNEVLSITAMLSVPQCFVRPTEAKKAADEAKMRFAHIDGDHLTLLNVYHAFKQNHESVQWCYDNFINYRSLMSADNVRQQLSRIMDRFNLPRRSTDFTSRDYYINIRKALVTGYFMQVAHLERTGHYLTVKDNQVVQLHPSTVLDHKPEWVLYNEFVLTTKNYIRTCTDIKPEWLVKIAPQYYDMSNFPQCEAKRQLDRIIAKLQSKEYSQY
UniProt Q99KP6: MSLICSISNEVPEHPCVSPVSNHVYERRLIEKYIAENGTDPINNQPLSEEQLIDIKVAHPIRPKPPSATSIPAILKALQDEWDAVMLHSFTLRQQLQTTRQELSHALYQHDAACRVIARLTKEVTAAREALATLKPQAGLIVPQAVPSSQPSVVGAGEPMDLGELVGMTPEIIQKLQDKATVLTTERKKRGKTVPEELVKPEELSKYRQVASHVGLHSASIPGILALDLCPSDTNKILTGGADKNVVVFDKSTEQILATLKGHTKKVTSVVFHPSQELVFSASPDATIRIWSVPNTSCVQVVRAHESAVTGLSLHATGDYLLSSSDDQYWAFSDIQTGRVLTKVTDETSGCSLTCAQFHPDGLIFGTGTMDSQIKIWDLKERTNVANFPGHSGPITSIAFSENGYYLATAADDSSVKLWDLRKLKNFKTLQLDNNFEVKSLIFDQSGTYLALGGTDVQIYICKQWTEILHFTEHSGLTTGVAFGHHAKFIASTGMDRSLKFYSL
UniProt Q9R1C7: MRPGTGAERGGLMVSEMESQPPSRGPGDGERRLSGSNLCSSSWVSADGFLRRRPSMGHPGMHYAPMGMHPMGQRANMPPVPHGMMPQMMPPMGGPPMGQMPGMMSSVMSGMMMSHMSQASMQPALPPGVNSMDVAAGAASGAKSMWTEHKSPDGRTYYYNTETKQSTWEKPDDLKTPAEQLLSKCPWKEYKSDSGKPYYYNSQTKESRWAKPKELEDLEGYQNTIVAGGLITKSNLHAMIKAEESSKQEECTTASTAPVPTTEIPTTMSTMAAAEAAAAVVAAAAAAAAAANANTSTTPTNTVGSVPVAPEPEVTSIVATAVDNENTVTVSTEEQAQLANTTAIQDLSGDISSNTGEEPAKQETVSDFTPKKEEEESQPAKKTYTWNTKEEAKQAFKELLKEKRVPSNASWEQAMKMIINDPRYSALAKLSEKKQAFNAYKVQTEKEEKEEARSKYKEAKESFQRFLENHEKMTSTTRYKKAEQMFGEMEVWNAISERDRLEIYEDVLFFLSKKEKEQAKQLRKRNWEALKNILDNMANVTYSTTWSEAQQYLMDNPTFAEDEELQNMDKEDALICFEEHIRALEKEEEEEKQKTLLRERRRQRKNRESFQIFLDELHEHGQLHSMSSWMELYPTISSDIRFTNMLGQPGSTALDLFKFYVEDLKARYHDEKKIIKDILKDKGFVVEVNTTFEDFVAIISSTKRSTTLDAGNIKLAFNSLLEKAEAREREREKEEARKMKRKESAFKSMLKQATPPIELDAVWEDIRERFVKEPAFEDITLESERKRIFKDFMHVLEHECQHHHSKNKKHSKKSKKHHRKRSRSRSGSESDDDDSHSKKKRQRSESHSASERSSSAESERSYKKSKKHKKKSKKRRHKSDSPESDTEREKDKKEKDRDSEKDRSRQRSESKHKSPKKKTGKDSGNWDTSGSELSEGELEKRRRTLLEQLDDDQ

T1: SYMPK (mouse (endogenous in spermatogenic cells of P16 testes)) (UniProt Q80X82)
T1 sequence: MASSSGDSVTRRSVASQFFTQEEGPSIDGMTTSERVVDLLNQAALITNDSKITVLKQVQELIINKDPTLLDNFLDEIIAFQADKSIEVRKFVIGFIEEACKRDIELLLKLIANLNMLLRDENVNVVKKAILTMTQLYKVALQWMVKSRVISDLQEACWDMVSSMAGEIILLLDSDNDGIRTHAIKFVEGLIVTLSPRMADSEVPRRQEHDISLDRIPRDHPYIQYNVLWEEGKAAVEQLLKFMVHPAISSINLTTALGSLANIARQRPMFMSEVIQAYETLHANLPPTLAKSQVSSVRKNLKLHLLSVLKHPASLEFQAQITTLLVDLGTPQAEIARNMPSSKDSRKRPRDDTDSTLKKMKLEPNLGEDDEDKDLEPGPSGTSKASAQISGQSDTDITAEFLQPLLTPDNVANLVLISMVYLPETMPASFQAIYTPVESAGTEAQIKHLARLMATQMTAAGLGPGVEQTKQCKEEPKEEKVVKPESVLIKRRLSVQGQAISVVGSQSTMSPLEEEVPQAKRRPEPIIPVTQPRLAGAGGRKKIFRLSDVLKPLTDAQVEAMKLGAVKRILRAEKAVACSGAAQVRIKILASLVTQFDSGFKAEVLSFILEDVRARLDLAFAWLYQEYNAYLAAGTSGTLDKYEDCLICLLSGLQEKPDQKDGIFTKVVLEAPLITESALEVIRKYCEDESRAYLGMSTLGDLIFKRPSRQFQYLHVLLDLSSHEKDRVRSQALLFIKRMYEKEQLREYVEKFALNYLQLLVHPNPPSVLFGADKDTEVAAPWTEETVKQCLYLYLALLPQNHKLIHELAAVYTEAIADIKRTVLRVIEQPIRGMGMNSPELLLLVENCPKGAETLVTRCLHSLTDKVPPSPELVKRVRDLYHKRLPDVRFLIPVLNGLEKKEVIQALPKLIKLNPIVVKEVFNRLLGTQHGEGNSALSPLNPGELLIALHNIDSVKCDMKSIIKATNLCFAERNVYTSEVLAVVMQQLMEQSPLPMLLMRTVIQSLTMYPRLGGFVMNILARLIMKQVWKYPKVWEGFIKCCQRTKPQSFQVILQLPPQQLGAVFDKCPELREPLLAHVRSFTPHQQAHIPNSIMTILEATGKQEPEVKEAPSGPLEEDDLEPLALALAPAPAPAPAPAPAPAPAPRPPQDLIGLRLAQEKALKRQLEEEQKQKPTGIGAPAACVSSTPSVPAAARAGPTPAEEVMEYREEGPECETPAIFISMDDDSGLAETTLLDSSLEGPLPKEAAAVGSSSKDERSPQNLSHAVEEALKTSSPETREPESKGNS

B1: CWC22 (pre-mRNA-splicing factor CWC22 homolog) (protein, UniProt Q8C5N3 1-908)
chain: MKSSVAHMKSSGHNRRETHSSYRRSSSPEDRYTEQERSPRDRGYSDYSRSDYERSRRGYSYDDSMESRSRDREKRRERERDADHRKRSRKSPSPDRSPARGGGQSSPQEEPTWKKKKDELDPLLTRTGGAYIPPAKLRMMQEQITDKSSLAYQRMSWEALKKSINGLINKVNISNISIIIQELLQENIVRGRGLLSRSVLQAQSASPIFTHVYAALVAIINSKFPQIGELILKRLILNFRKGYRRNDKQLCLTASKFVAHLINQNVAHEVLCLEMLTLLLERPTDDSVEVAIGFLKECGLKLTQVSPRGINAIFERLRNILHESEIDKRVQYMIEVMFAVRKDGFKDHPVILEGLDLVEEDDQFTHMLPLEDDYNPEDVLNVFKMDPNFMENEEKYKAIKKEILDEGDSDSNTDQGAGSSEDEEEEDEEEEGEDEEGGQKVTIHDKTEINLVSFRRTIYLAIQSSLDFEECAHKLLKMEFAESQTKELCNMILDCCAQQRTYEKFFGLLAGRFCMLKKEYMESFESIFKEQYDTIHRLETNKLRNVAKMFAHLLYTDSLPWSVLECIKLSEETTTSSSRIFVKIFFQELCEYMGLPKLNARLKDETLQPFFEGLLPRDNPRNTRFAINFFTSIGLGGLTDELREHLKNTPKVIVAQKPEAEQKKPALTSSSSESSSASDSSDSESDSSESSSESSSDASDSSSSSSTQSSTSGITAHSAKGTRKKRQGKARGEEVDKLARGHQALERRREGGREDQRHQEGRTERARSERRRAQNSRDADWRDPLAKHIDDRSHENSHSRVGNGREQGSHREPEDRHGEPKKRRERRDSFSENEKQRSRNQDSDNVRRKDRSKSRERSRRHSGHKGDDARCQNSAERRWEKPGRRPEQSRESKRSQDRRREKSPTTQK
B2: WTAP (pre-mRNA-splicing regulator WTAP) (protein, UniProt Q9ER69 1-396)
chain: MTNEEPLPKKVRLSETDFKVMARDELILRWKQYEAYVQALEGKYTDLNSNDVTGLRESEEKLKQQQQESARRENILVMRLATKEQEMQECTTQIQYLKQVQQPSVAQLRSTMVDPAINLFFLKMKGELEQTKDKLEQAQNELSAWKFTPDSQTGKKLMAKCRMLIQENQELGRQLSQGRIAQLEAELALQKKYSEELKSSQDELNDFIIQLDEEVEGMQSTILVLQQQLKETRQQLAQYQQQQSQASAPSTSRTTSSEPVDQAEVTSKDCSRLANGPSNGSSSRQRTSGSGFHREGSTPEDDFPSSSGNGNKASNSSEERTGRGGSSYINPLSAGYESVDSPTGSENSLTHHSNDTDSSHDPQEEKAVSGKGNRTVGSRHVQNGLDSSVNVQGAVL

No constants are given. Whether binding was seen depends on the method and setting. Binding seen in cells or lysates may run through a third protein. A yes stands for co-enrichment or nearness to the bait. Other partners may have been found.

In the experiment the target is T1, SYMPK (mouse (endogenous in spermatogenic cells of P16 testes)). Description: affinity purification with mass spectrometry; anti-SYMPK antibody and protein A agarose beads on lysates of spermatogenic cells of P16 testes from wt and Sympk cKO(Stra8-Cre) mice; 50 mM Tris pH 7.5, 150 mM NaCl, 1% NP-40, 0.5% sodium deoxycholate, 1 mM DTT; lysates treated with RNase A and DNase; 4°C; HPLC and high-resolution mass ….
Take “DHX15 (pre-mRNA-splicing factor ATP-dependent RNA DEAH-box helicase 15) (from UniProt O35286 1-795)”: the binding entry is on record as “binds”. PRPF19 (from UniProt Q99KP6 1-504): the binding result is given as “binds”. Take PRPF40a (from UniProt Q9R1C7 1-953): the binding entry is listed as “binds”.

In the case of B1, the binding result is on record as “binds”. For the molecule B2, the binding entry is on record as “binds”.
